Reference: the supplement of paper PMC6445147
Values scatter widely in this assay.

B1: human tRNA-Pro; a variant is named by its letters at N, in order (parent)
chain: GGCTCGTTGGTCTAGNGGTATGATTCTCGCTTAGGGTGCGAGAGGTCCCGGGTTCNNATCCCGGACGAGCCC

What was measured:
[1] = variants of: B1; test: tRNA Pol-III promoter activity, log2 (circRNA frequency / plasmid DNA frequency) (log2 ratio); higher = stronger promoter activity; details: HEK293T; construct: no Pol-II promoter ((-)CMV library)
[2] = variants of: B1; test: tRNA 3' processing efficiency (processed reads / all reads, maximum-likelihood estimate) (fraction); higher = more efficient 3' processing; details: HEK293T; construct: no Pol-II promoter ((-)CMV library)
[3] = variants of: B1; test: tRNA 5' processing efficiency (processed reads / all reads, maximum-likelihood estimate) (fraction); higher = more efficient 5' processing; details: HEK293T; construct: CMV Pol-II promoter ((+)CMV library, decapped)

Variant | tRNA Pol-III promoter activity (log2) [1] | tRNA 3' processing efficiency [2] | tRNA 5' processing efficiency [3]
GGA C55T T59C | 3.21 | 0.33 | 
GGA C55T T59G | 4.47 | 0.54 | 
CGA G18C C55T T59A | 5.73 | 0.77 | 
CGA T53A | 2.62 | 0.25 | 
GGC C55T | 5.15 | 0.57 | 
GGG T59A | 4.83 | 0.69 | 
GGG T59C | 3.8 | 0.36 | 
GTA A14C A20T | 3.12 | 0.25 | 
GGT T19A A20T | 4.93 | 0.33 | 
GGA T19G C55A | 2.47 | 0.25 | 
GGA T19G C55T | 2.66 | 0.4 | 
GGA G18A T53A | 5.52 | 0.14 | 
GGA G18A T53G | 5.74 | 0.43 | 
GGT G9T | 3.49 | 0.62 | 
GGA G15A T19G | 7.08 | 0.89 | 
GGA T8C A14T | 1.94 | 0.67 | 
GGA T8G G18A | 4.15 | 0.57 | 
GGA G9A C55T | 2.93 | 0.17 | 
GGA T19C T53A A58T | 5.26 | 0.4 | 
GGA T8G A58C | 1.81 | 0.33 | 
CGT A58T | 5.26 | 0.14 | 
GGG C55T | 3.63 | 0.18 | 
GGT G17A G18C | 6.25 | 0.1 | 

Variant | tRNA Pol-III promoter activity (log2) [1] | tRNA 3' processing efficiency [2] | tRNA 5' processing efficiency [3]
TGA T53G | 4.66 | 0.41 | 
GGA T54A C55T | 3.05 | 0.17 | 
GGA T19A T54A C55T | 5.16 | 0.43 | 
GGG A14T A58G | 6.26 | 0.2 | 
GGT A58T | 3.23 | 0.38 | 
TGA T54A A58T | 5.84 | 0.57 | 
TGA T54A A58G | 5.45 | 0.31 | 
GGA T53G A58G | 8.11 | 0.83 | 
GGA T53G A58T | 4.39 | 0.4 | 
GGA G15C T53A | 6.36 | 0.4 | 
GGT T53A | 5.03 | 0.25 | 
GGT T53G | 3.94 | 0.25 | 
GGA T8C | -0.107 | 0.4 | 
CGA G9A T53A | 3.98 | 0.25 | 
CGA T19A | 3.93 | 0.4 | 
GGA T54A | 1.61 | 0.34 | 0.13
GGA T54C | 0.227 | 0.17 | 
GGA G9T T59A | 5.07 | 0.55 | 
GGA G9A T59G | 3.26 | 0.2 | 
GGA T8C G9A | 2.02 | 0.25 | 
TGA T54A | 2.7 | 0.17 | 
GGA G17T T53A | 4.1 | 0.17 | 
GGG T53A | 3.22 | 0.22 | 

Variant | tRNA Pol-III promoter activity (log2) [1] | tRNA 3' processing efficiency [2] | tRNA 5' processing efficiency [3]
GGC T54C | 4.03 | 0.4 | 
GGG A14T | 3.16 | 0.43 | 
GGG A14C | 5.68 | 0.25 | 
GGG A14G | 5.68 | 0.02 | 
GGC A14C G18A | 6.75 | 0.14 | 
AGA T8C A58C | 3.93 | 0.25 | 
GGG T19A T53A T59C | 9.92 | 0.01 | 
GGA T53A A58T | 5.16 | 0.57 | 
GGC T13A | 8.03 | 0.41 | 
TGA G15A T54A T59A | 3.94 | 0.5 | 
GGT T53A A58G | 8.51 | 0.01 | 
GGA T54A A58T | 6.51 | 0.5 | 
GGA T19A A20T C55G | 6.53 | 0.33 | 
GGA G9C T19A C55A | 7.94 | 0.75 | 
GGA T19G A58T | 2.13 | 0.25 | 
GGA G18A A20T | 2.45 | 0.25 | 
TGG | 4.34 | 0.75 | 
TGT | 3.23 | 0.25 | 
GGG A14T T53G | 3.94 | 0.5 | 
GGG G18A | 2.17 | 0.25 | 
GGG G18T | 1.07 | 0.25 | 
GGT T19C | 3.45 | 0.17 | 
GGT T19A | 3.04 | 0.29 | 

Some entries already given, limited to tRNA Pol-III promoter activity (log2) [1] and tRNA 3' processing efficiency [2]:

| Variant | tRNA Pol-III promoter activity (log2) [1] | tRNA 3' processing efficiency [2] |
| --- | --- | --- |
| GGA C55T T59C | 3.21 | 0.33 |
| GGA C55T T59G | 4.47 | 0.54 |
| CGA G18C C55T T59A | 5.73 | 0.77 |
| CGA T53A | 2.62 | 0.25 |
| GGC C55T | 5.15 | 0.57 |
| GGG T59A | 4.83 | 0.69 |
| GGG T59C | 3.8 | 0.36 |

Remaining list, next part:

Variant | tRNA Pol-III promoter activity (log2) [1] | tRNA 3' processing efficiency [2] | tRNA 5' processing efficiency [3]
GGA G15T A20T | 2.13 | 0.25 | 
AGC T54A | 4.93 | 0.17 | 
GGA T8G G15C T59A | 3.68 | 0.4 | 
CGT G15T | 5.19 | 0.17 | 
GGA T8G C55G | 2.53 | 0.5 | 
GGA T8G C55T | 3.47 | 0.62 | 
GGC G15C T59G | 5.84 | 0.47 | 
CGA G15C A58T | 6.03 | 0.25 | 
GGT T19A T59A | 5.94 | 0.25 | 
ATA | 2.87 | 0.4 | 
GGA G15C A58T | 2.04 | 0.25 | 
GGA G18T A58T | 0.855 | 0.25 | 
GGA T54G C55T | 2.12 | 0.25 | 
GGA G18A | 0.242 | 0.67 | 
TGA G17T T59C | 9.54 | 0.93 | 
GGA T53A T59C | 3.77 | 0.26 | 
GGA T53A T59G | 5.99 | 0.06 | 
TGA G9C G17C | 5.45 | 0.75 | 
AGA T54A | 8.49 | 0.32 | 
GGA G17T T54A | 4.94 | 0.25 | 
GGA G17A T59C | 3.34 | 0.33 | 
GGG G15A T19A | 6.62 | 0.5 | 
GGG G15C | 4.36 | 0.2 | 

Variant | tRNA Pol-III promoter activity (log2) [1] | tRNA 3' processing efficiency [2] | tRNA 5' processing efficiency [3]
TTA | 2.91 | 0.35 | 0.18
GGT T8G G17C | 4.36 | 0.25 | 
CGT C55G T59G | 7.45 | 0.22 | 
GGA T19C | 0.916 | 0.85 | 0.65
GGA G18T T59G | 3.12 | 0.13 | 
GGG T8G | 3.51 | 0.42 | 
GGG T8C | 6.38 | 0.28 | 
GGT G9T A14C | 3.67 | 0.2 | 
GGA T19C T59G | 4.93 | 0.25 | 
CGA T59G | 3.77 | 0.4 | 
GGA T8C T19A C55T | 5.53 | 0.33 | 
GGT G17A | 4.3 | 0.58 | 
GGA G15A A58G | 5.26 | 0.2 | 
CGA C55T A58G | 6.62 | 0.5 | 
GGC T8A G15T T19G | 3.71 | 0.5 | 
GGG A58G | 4.21 | 0.53 | 
GGG A58T | 6.02 | 0.11 | 
CGA T54G | 3.34 | 0.25 | 
CGA T54A | 4.19 | 0.17 | 
TGA G15A T54A | 3.94 | 0.2 | 
CGA G18A T59A | 4.03 | 0.5 | 
GGA T19A T59G | 3.36 | 0.4 | 
GGT C55G | 4.68 | 0.2 | 
